Measured values taken from PubChem BioAssay AID248 (DTP/NCI, 2004).
The list is a part of this screen's results and no random one: it gathers tests that were run many times, whatever their T/C, doses with no T/C, and many T/C values between a quarter and a half above the control. Other doses and runs of a compound stand elsewhere. T/C gives the treated animals as a percentage of the vehicle group. Some entries give survivors of the animals treated and no T/C: the source holds a T/C of zero for them, seemingly a mark for toxic or unscored doses. Some doses without a T/C left all or most animals alive at the check, yet need not have been tolerated: the source hardly ever lists a survival T/C far under the control, and the zero likely stands for such cases as well. Survivors were counted at the toxicity check, usually on the fifth day, unless a day is given; later deaths do not show. Schedules are NCI's codes, read here as Q, the interval in days (D) or hours (H), X, the number of doses. Some doses were run more than once; their values stand side by side, smallest first. For survival time, the PubChem record calls one and a half times the control and up active, and a quarter to a half above the control has no call in these data; cut-offs in other NCI protocols can differ. Some T/C values are followed by the survivors on the day toxicity was checked, most often the fifth; where none is given, no animal had died by that day. Marks such as (2×) count equal records among those shown.

Test system: L1210 leukemia ip in BDF1 mice, survival T/C
Assay: NCI In Vivo Anticancer Drug Screen. Data for tumor model L1210 Leukemia (intraperitoneal) in B6D2F1 (BDF1) mice
Conditions: T/C endpoint: mean survival time, higher T/C = longer survival
[1] = dose: 100.0 mg/kg/injection, schedule: Q01DX009 (ip), vehicle: methylcellulose (MC)
[2] = dose: 150.0 mg/kg/injection, schedule: Q01DX009 (ip), vehicle: Klucel (hydroxypropylcellulose) (HPC)
[3] = dose: 150.0 mg/kg/injection, schedule: Q01DX009 (ip), vehicle: methylcellulose (MC)

O=C1NC(c2cccc3ccccc23)Nc2ccccc21 (centres undefined)
T/C (dose: 31.2 mg/kg/injection, schedule: Q01DX009 (ip), vehicle: water): 139 % of control | T/C (dose: 32.0 mg/kg/injection, schedule: Q01DX009 (ip), vehicle: Klucel (hydroxypropylcellulose) (HPC)): 127 % of control | T/C (dose: 32.0 mg/kg/injection, schedule: Q03HX008 (ip), vehicle: Klucel (hydroxypropylcellulose) (HPC)): 125 % of control | T/C (dose: 32.0 mg/kg/injection, schedule: Q03HX024 (ip), vehicle: Klucel (hydroxypropylcellulose) (HPC)): 128 % of control | T/C (dose: 40.0 mg/kg/injection, schedule: Q01DX009 (ip), vehicle: Klucel (hydroxypropylcellulose) (HPC)): 125 % of control | survivor count (dose: 40.0 mg/kg/injection, schedule: Q01DX009 (oral), vehicle: methylcellulose (MC)): 5 of 8 | survivor count (dose: 40.0 mg/kg/injection, schedule: Q01DX009 (oral), vehicle: other): 4 of 8 | T/C (dose: 50.0 mg/kg/injection, schedule: Q01DX009 (ip), vehicle: Klucel (hydroxypropylcellulose) (HPC)): 129, 134, 139, 141, 150 % of control | T/C (dose: 50.0 mg/kg/injection, schedule: Q01DX009 (ip), vehicle: methylcellulose (MC)): 107, 113, 116 [5 of 6 alive], 118, 131, 137 % of control | survivor count (dose: 60.0 mg/kg/injection, schedule: Q01DX009 (oral), vehicle: methylcellulose (MC)): 4 of 8 | T/C (dose: 64.0 mg/kg/injection, schedule: Q01DX009 (ip), vehicle: Klucel (hydroxypropylcellulose) (HPC)): 142 % of control | T/C (dose: 64.0 mg/kg/injection, schedule: Q03HX008 (ip), vehicle: Klucel (hydroxypropylcellulose) (HPC)): 144 % of control [9 of 10 alive] | T/C (dose: 64.0 mg/kg/injection, schedule: Q03HX016 (ip), vehicle: Klucel (hydroxypropylcellulose) (HPC)): 133 % of control | T/C (dose: 64.0 mg/kg/injection, schedule: Q03HX024 (ip), vehicle: Klucel (hydroxypropylcellulose) (HPC)): 129 % of control | T/C (dose: 100.0 mg/kg/injection, schedule: Q01DX009 (ip), vehicle: Klucel (hydroxypropylcellulose) (HPC)): 87, 92 [5 of 6 alive], 94, 113, 134, 159 % of control | T/C [1]: 86 [5 of 6 alive], 91, 96, 98 [5 of 6 alive], 109, 134 % of control | survivor count [1]: 6 of 6 | T/C (dose: 100.0 mg/kg/injection, schedule: Q01DX009 (oral), vehicle: Klucel (hydroxypropylcellulose) (HPC)): 127 % of control | T/C (dose: 100.0 mg/kg/injection, schedule: Q01DX009 (oral), vehicle: methylcellulose (MC)): 103, 106, 108, 114 (2×), 120, 127 % of control | T/C (dose: 100.0 mg/kg/injection, schedule: Q01DX009 (oral), vehicle: other): 92 [7 of 8 alive], 109, 120, 122, 136 % of control | T/C (dose: 100.0 mg/kg/injection, schedule: Q04DX003 (ip), vehicle: methylcellulose (MC)): 128 % of control | survivor count (dose: 120.0 mg/kg/injection, schedule: Q01DX009 (oral), vehicle: other): 3 of 8 | T/C (dose: 125.0 mg/kg/injection, schedule: Q01DX009 (ip), vehicle: water): 130 % of control | survivor count (dose: 125.0 mg/kg/injection, schedule: Q01DX009 (oral), vehicle: other): 6 of 8 | survivor count (dose: 128.0 mg/kg/injection, schedule: Q03HX008 (ip), vehicle: Klucel (hydroxypropylcellulose) (HPC)): 5 of 10 | survivor count (dose: 128.0 mg/kg/injection, schedule: Q03HX016 (ip), vehicle: Klucel (hydroxypropylcellulose) (HPC)): 6 of 10 | survivor count (dose: 128.0 mg/kg/injection, schedule: Q03HX024 (ip), vehicle: Klucel (hydroxypropylcellulose) (HPC)): 2 of 10 | T/C (dose: 128.0 mg/kg/injection, schedule: Q04DX003 (ip), vehicle: Klucel (hydroxypropylcellulose) (HPC)): 135 % of control | survivor count (dose: 140.0 mg/kg/injection, schedule: Q01DX009 (ip), vehicle: Klucel (hydroxypropylcellulose) (HPC)): 6 of 8 | survivor count (dose: 140.0 mg/kg/injection, schedule: Q01DX009 (ip), vehicle: methylcellulose (MC)): 8 of 8 | T/C [2]: 109 and 141 % of control | survivor count [2]: 5 of 6 and 6 of 6 | T/C [3]: 102 % of control | survivor count [3]: 1 of 6, 2 of 6, 3 of 6, 4 of 6, 5 of 6
